The list does not hold the whole screen: it gathers tests that were run many times, whatever their T/C, doses with no T/C, and many T/C values between a quarter and a half above the control. Further doses and runs are listed elsewhere. T/C: endpoint of the treated group in % of that of the vehicle group. Some entries give survivors of the animals treated and no T/C: the source holds a T/C of zero for them, seemingly a mark for toxic or unscored doses. Survivors were counted at the toxicity check, usually on the fifth day, unless a day is given; later deaths do not show. Schedule codes are those of the source, read here as Q, the interval in days (D) or hours (H), X, the number of doses. Some entries were tested several times; the values are given in rising order.
Tested on: P388 leukemia ip, CD2F1 mice, survival T/C
Assay: NCI In Vivo Anticancer Drug Screen. Data for tumor model P388 Leukemia (intraperitoneal) in CD2F1 (CDF1) mice
Conditions: T/C endpoint: median survival time, schedule: Q01DX005 (ip), vehicle: saline, higher T/C = longer survival

For `COc1c2c(cc3c1C(O)N(C)CC3)OCO2` (configuration not stated), the survivor count (dose: 120.0 mg/kg/injection) was 1 of 6 and 3 of 6 and the survivor count (dose: 240.0 mg/kg/injection) was 0 of 6.
